{
  "sequences": {"note": "The chains behind the UniProt entries cited, without tags or fusion partners. Residues count along the entry.", "UniProt P49771, residues 27-185": "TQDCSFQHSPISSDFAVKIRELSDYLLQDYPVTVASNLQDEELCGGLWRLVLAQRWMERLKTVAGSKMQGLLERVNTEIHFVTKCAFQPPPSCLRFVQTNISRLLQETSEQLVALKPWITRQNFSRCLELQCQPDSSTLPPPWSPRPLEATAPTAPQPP"},
  "source": "patent US20110008355A1",
  "target": "T1, FLT3-D1-5 (human) (UniProt P36888)",
  "T1 sequence (chain (part 1 of 2))": "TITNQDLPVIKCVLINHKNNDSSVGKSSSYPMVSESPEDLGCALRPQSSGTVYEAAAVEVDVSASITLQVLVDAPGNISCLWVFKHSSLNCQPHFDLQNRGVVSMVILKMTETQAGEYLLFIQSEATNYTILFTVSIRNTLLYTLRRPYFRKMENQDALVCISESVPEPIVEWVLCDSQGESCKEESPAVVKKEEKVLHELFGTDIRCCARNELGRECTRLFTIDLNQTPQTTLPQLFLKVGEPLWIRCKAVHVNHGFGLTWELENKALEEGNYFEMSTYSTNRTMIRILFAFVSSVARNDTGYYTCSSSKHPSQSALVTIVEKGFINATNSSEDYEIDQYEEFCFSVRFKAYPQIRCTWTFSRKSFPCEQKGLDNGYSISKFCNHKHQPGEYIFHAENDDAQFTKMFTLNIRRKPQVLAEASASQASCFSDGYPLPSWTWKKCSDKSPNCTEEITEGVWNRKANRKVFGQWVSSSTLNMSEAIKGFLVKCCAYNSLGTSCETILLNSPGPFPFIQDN",
  "T1 sequence (chain (part 2 of 2))": "HHHHHH",
  "assay": "ligand binding ELISA, FL-coated plates, FLT3 ECD deletion variants",
  "note": "These are yes or no findings as the source states them, for the method shown. Some binding calls cover weakened binding; strength is not graded here.",
  "data": [
    {"substance": "FLT3 ligand (from UniProt P49771 27-185)", "values": [
      {"measurement": "binding", "value": "binds"}
    ]}
  ]
}
